This note sets out measurements from PMC12147715.

Results are given in words; binding and its absence hold for the method and conditions named. For part of these data: Binding can be weak; no strength is given. For part of these data: In cells and extracts the contact can be indirect.

Assay [1] has as its target Microtubules (MTs) polymerized in vitro. Briefly: co-sedimentation; MT-pelleting assay with Taxol-stabilized MTs; pellet and supernatant fractions; both purified.
Assay [2] deals with GFP–Spef1 N-terminal truncation (CH domain, mouse) (mouse). Briefly: co-IP; proteins transiently expressed in HEK293T cells, then co-immunoprecipitation.
Assay [3] has as its target GFP–Spef1 C-terminal truncation (CC domain, mouse) (mouse). The assay is described as above.

B1: Ccdc13 (1–300) (domain or fragment, UniProt D3YV10 1-300)
chain: MAADESSADTLRLQFKAMQELQHRRLQKQMEKKREKELSCQSKADNQEGFMVIPDGLSLLDTEEQNLKNIFEKRVLEDEIQHLRSELRETVDENGRLYKLLKERDFEIKHLKKKIEEDRFAFTGASGMAGDLVATKIVELSKKNRGLMAESESAKVRIKQLTNRIQELEHQLQMASAKPPSKGATDAGAKPLKTQTGDRALLETPEVKALQDRLAATNLKMSDLRNQIQSAKQELRVAQKVLANEVGEDVNIQQLLASPGTWRGRAQQILVLQSRVRDLEKQLGQRQNKPAGSSSSEVPL
For B1, the binding entry in assay [1] is on record as “binds”.

B2: Mouse Ccdc13 expressed in HEK293T cells (protein, UniProt D3YV10 1-709)
chain: MAADESSADTLRLQFKAMQELQHRRLQKQMEKKREKELSCQSKADNQEGFMVIPDGLSLLDTEEQNLKNIFEKRVLEDEIQHLRSELRETVDENGRLYKLLKERDFEIKHLKKKIEEDRFAFTGASGMAGDLVATKIVELSKKNRGLMAESESAKVRIKQLTNRIQELEHQLQMASAKPPSKGATDAGAKPLKTQTGDRALLETPEVKALQDRLAATNLKMSDLRNQIQSAKQELRVAQKVLANEVGEDVNIQQLLASPGTWRGRAQQILVLQSRVRDLEKQLGQRQNKPAGSSSSEVPLSSDSRKMTAQEKNLLRIRSLERDKQESWEKLASERDTLQTELEELRKKFEGMRSRNKVLSSEVKTLRSQMTTLVEKGRHDDELIDALMDQLKQLQDILSSLSVQEESRRTSQQHLDQKVNSEAQRSSSLVAQLRAMVADREAKVRQLELEIGQLSVQYLHGKGGGEGASPADARFPEDQTPITNSPASAGDHVGRLGSSRSVTSLGHTLVESALTRPSLPSPHGTSPRFSDSPEQKGWQAQAAEMKALWQAAEVERDRLNEFVTVLQKRVEESSSKLLEAERRLQEERQRAVLLEQHLEKMRLEPSRASVSQKTKNKPGPPAANTKPNSAGSAKKDSSSTQLCDMPMESQIQELNARLAIQMEENGILRDALGSALRGKEEDFRMYHQTLGQVKGVFLQALRQQKANKQ
With B2, the binding result was “no binding” in assay [2] and “binds” in assay [3].
